# Data as given in PubChem BioAssay AID504786 (Drosophila RNAi Screening Center, 2011).
# Aim: 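Knock-downs reducing HIF reporter induction by the iron chelator DFO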 (primary screen)
# Cell system: Drosophila S2 cells with a stable HIF luciferase reporter
# Reagent: long dsRNA against Drosophila genes, about 0.2 µg dsRNA per well of a 384-well plate
# Time to read-out: three days of knock-down, then 20 h of DFO before reading
# Challenge: desferrioxamine (DFO) at 100 µM, an iron chelator that mimics hypoxia, for 20 h
# Measurement: 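Firefly luciferase driven by the mouse ldh-a hypoxia-response element, measured after 20 h of 100 µM DFO; z-scores per plate, higher means more signal lost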
# Direction: z-score: higher = stronger loss of HIF reporter signal
# The screen tested about 21,000 reagents; below is a random part of those with a known target gene and a result. 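Primary screen; positive scores mean lost reporter signal, so the sign may be inverted from the usual convention.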
target gene,amplicon,"z-score, replicate 1","z-score, replicate 2","z-score, replicate 3","z-score, replicate 4"
Hesr (HES-related),DRSC19965,-0.2,-0.6,,
CG11262,DRSC09831,-0.3,-0.4,,
CG43316,DRSC06296,0,-0.2,,
CG43316,DRSC06297,-0.2,-0.3,,
Plp (Pericentrin-like protein),DRSC10006,-0.5,0.7,,
Plp (Pericentrin-like protein),DRSC10333,-0.2,0,,
Plp (Pericentrin-like protein),DRSC10700,-0.4,-0.3,,
Obp56i (Odorant-binding protein 56i),DRSC05812,-0.5,-0.2,,
Tsp (Thrombospondin),DRSC02144,-0.3,-0.2,,
Tsp (Thrombospondin),DRSC02145,-0.4,-0.3,,
Claspin,DRSC08308,0.9,0,,
CG3358,DRSC04992,-0.3,-0.8,,
CG7194,DRSC10784,-0.2,-0.4,,
CG11437,DRSC11659,0,0,,
CG6282,DRSC10616,-0.2,-0.2,,
CG10991 (retired record),DRSC12156,-0.3,-0.5,,
ais (aramis),DRSC10523,-0.2,-0.3,,
srl (spargel),DRSC12340,-0.3,-0.4,,
Fpgs1 (Folylpolyglutamate synthase 1),DRSC19857,-0.2,0,,
rha,DRSC17044,-0.2,-0.3,,
CG13436,DRSC06396,-0.3,-0.6,,
CG17568,DRSC02628,-0.3,-0.3,-0.5,0.1
CG2201,DRSC03721,0.2,0.4,,
CG13096,DRSC02198,0.2,1.2,,
Ubc10 (Ubiquitin conjugating enzyme 10),DRSC07568,-0.2,-0.3,,
CG1441,DRSC06448,-0.4,-0.4,,
ng3 (new glue 3),DRSC18804,-0.2,0.1,,
"Polr2K (RNA polymerase II, I and III subunit K)",DRSC05535,0.1,0,,
dmt (dalmatian),DRSC16932,1.1,2.4,,
CG14196,DRSC19551,-0.3,-0.2,,
SLIRP2 (SRA stem-loop interacting RNA binding protein 2),DRSC16363,-0.3,-0.6,,
CG42514,DRSC10428,-0.1,0.9,,
ebd1 (earthbound 1),DRSC08565,-0.2,-0.1,,
Abca3 (ATP binding cassette subfamily A member 3),DRSC20546,0.1,0.1,,
alphaTry (alphaTrypsin),DRSC07577,-0.4,-0.3,,
CG13724,DRSC10053,0,0.4,,
CG15653,DRSC04244,-0.2,-0.3,,
Ufsp1 (UFM1 specific peptidase 1),DRSC04958,0.3,-0.1,,
CG10339,DRSC04065,0,-0.2,,
CG32281,DRSC08236,-0.1,-0.3,,
CG33635,DRSC00006,1.4,0.3,,
CG18585,DRSC02678,-0.3,-0.4,,
CG17475,DRSC15238,-0.4,-0.3,,
Edg78E (Ecdysone-dependent gene 78E),DRSC11863,-0.3,-0.7,,
kcc (kazachoc),DRSC04316,-0.3,-0.3,,
kcc (kazachoc),DRSC04516,-0.3,-0.2,,
CG5608,DRSC15841,0,0,,
CG14342,DRSC00372,-0.4,-0.4,,
CG32762,DRSC18298,-0.3,-0.5,-0.1,-0.3
CG17490,DRSC03794,-0.4,-0.4,,
CG17490,DRSC03797,-0.3,0.1,,
CG15728,DRSC19694,-0.2,0.3,,
nero,DRSC15432,0.7,0.7,,
CG5267,DRSC06928,-0.3,-0.5,,
dao (down and out),DRSC01960,-0.1,-0.5,,
CG14118,DRSC10122,-0.3,-0.2,,
dpr5 (defective proboscis extension response 5),DRSC15766,-0.4,0,,
CG5246,DRSC15751,-0.2,-0.3,,
Cpr60D (Cuticular protein 60D),DRSC04492,-0.1,-0.5,,
comm (commissureless),DRSC11336,-0.4,0.1,,
CG10171,DRSC09711,-0.3,0,,
CG9743,DRSC16552,-0.2,0,,
CG6497,DRSC10654,-0.2,-0.4,,
CG13285,DRSC09960,-0.3,0.7,,
clu (clueless),DRSC07181,0,-0.2,,
CG8372,DRSC03086,-0.2,-0.5,,
rost (rolling stone),DRSC03603,-0.3,-0.6,,
CG13566,DRSC04203,-0.5,-0.8,,
CG14052,DRSC17907,-0.2,0.1,,
CG14052,DRSC18192,-0.4,-0.5,,
Adf1 (Adh transcription factor 1),DRSC04941,0.1,0.1,,
Adf1 (Adh transcription factor 1),DRSC04963,-0.2,0,,
Jhbp4 (Juvenile hormone binding protein 4),DRSC14222,0,-0.1,,
CG14111,DRSC10114,-0.3,-0.5,,
PGAP1 (Post-GPI attachment to proteins 1),DRSC18286,-0.3,-0.5,,
dpr13 (defective proboscis extension response 13),DRSC06160,-0.4,0.3,,
dpr13 (defective proboscis extension response 13),DRSC06464,-0.3,0.3,,
Sdb (SAXO downstream of blistered),DRSC06272,-0.2,-0.2,,
Sdb (SAXO downstream of blistered),DRSC06273,-0.1,-0.6,,
Sdb (SAXO downstream of blistered),DRSC07155,-0.3,-0.3,,
Sfxn2 (Sideroflexin 2),DRSC10718,-0.3,-0.5,,
CG5704,DRSC08572,-0.3,-0.3,,
Dtwd2 (DTW domain containing 2),DRSC12501,-0.1,-0.4,,

Records listed so far whose gene name begins with R or r (2):
target gene,amplicon,"z-score, replicate 1","z-score, replicate 2","z-score, replicate 3","z-score, replicate 4"
rha,DRSC17044,-0.2,-0.3,,
rost (rolling stone),DRSC03603,-0.3,-0.6,,
